Results published in patent US7094761B2, “Methods and compounds for prevention and treatment of elevated intraocular pressure and related conditions” (Theratechnologies Inc., priority 2002, dated 2006).
Some results were stated once for a whole list of compounds, not compound by compound.

Test system: porcine adult retinal arterioles
Experiment: Adult pig eyecup preparation, retinal arteriole diameter (selectivity)
Details: for reversal of the constriction produced by latanoprost / reversal of the constriction produced by timolol: adult pig eyecup retinal arterioles; for constriction of retinal arterioles (change in outer vessel diameter): adult pig eyecup, average

| Molecule | reversal of the constriction produced by latanoprost | reversal of the constriction produced by timolol [%] | constriction of retinal arterioles (change in outer vessel diameter) |
| --- | --- | --- | --- |
| H-HIICSPLR-OH [Peptide 1402, NH2-His Ile Ile Cys Ser Pro Leu Arg-OH] | 1–5% | < 1 | – |
| CC(C)(C)NC[C@H](O)COc1nsnc1N1CCOCC1 [timolol, reference compound] | – | – | 7–8% |
| CC[C@H](C)[C@H](N)C(=O)N[C@@H](Cc1ccccc1)C(=O)N[C@@H](CC(=O)O)C(=O)N[C@@H](CO)C(=O)N[C@H](C(=O)N[C@@H](CCC(=O)O)C(=O)N[C@@H](CS)C(=O)N[C@@H](Cc1c[nH]c2ccccc12)C(=O)O)[C@@H](C)O [Peptide 1405, NH2-Ile Phe Asp Ser Thr Gln Cys Trp-OH] | 1–5% | < 1 | – |
| CC(C)OC(=O)CCC/C=C\C[C@@H]1[C@@H](CC[C@@H](O)CCc2ccccc2)[C@H](O)C[C@@H]1O [latanoprost, reference compound] | – | – | 7–8% |
